Source: PubChem BioAssay AID1080 (Emory University Molecular Libraries Screening Center, 2008).

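A counter-screen in EP4-overexpressing cells measuring cyclic AMP with a time-resolved FRET kit under weak PGE2 stimulation.
Compounds were tested at 20 µM final. A low (about EC15) PGE2 dose was present.
Percent cAMP induction as a fraction of the 1 µM PGE2 response, averaged over three replicates; a higher value means more cAMP.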

Values are in %.
Common to all entries: measured here: EP4 receptor counter-screen.
This is a side read-out of the assay, for part of the compounds, not drawn at random.

| SMILES | setting | cAMP induction (%) |
|---|---|---|
| `C=CCc1cc(C=C2C(=O)N(C)C(=O)N(C)C2=O)cc(OCC)c1OCc1ccccc1` | - | -7.223 |
| `CCC1(C)Cc2ccccc2-c2nc3n(c(=O)c21)CCS3` (configuration not stated) | percent of 1 uM PGE2 response; plus low (about EC15) PGE2 agonist | 20.93 |
| `CC(C)(C)C1CCc2onc(C(=O)Nc3cccnc3)c2C1` (configuration not stated) | percent of 1 uM PGE2 response; plus low (about EC15) PGE2 agonist | 3.297 |
| `Cc1cc2cc3c(cc2nc1SCC(=O)OC(C)C)OCO3` | percent of 1 uM PGE2 response; plus low (about EC15) PGE2 agonist | 17.49 |
| `Cc1nn2c(N3CCN(C(=O)c4ccco4)CC3)cc(C(C)(C)C)nc2c1-c1ccccc1` | percent of 1 uM PGE2 response; plus low (about EC15) PGE2 agonist | -12.23 |
| `O=c1c2c(n3cnnc3n1C1CCCCC1)-c1ccccc1CC21CCCCC1` | percent of 1 uM PGE2 response; plus low (about EC15) PGE2 agonist | -3.973 |
| `Cc1cccc(NC2=NC(=S)N(c3ccc(C(=O)O)cc3)C23CCCCC3)c1` | percent of 1 uM PGE2 response; plus low (about EC15) PGE2 agonist | 5.19 |
| `CCc1ccccc1NC(=S)N(Cc1ccco1)C(C)c1cccs1` (configuration not stated) | percent of 1 uM PGE2 response; plus low (about EC15) PGE2 agonist | -5.047 |
| `CC1CCN(C(C)C(=O)Nc2ccccc2-c2ccccc2)CC1` (configuration not stated) | percent of 1 uM PGE2 response; plus low (about EC15) PGE2 agonist | 5.423 |
| `O=C(c1ccc(Cl)cc1)c1oc2ccccc2c1CS(=O)(=O)c1ccccc1` | percent of 1 uM PGE2 response; plus low (about EC15) PGE2 agonist | 4.517 |
| `O=C(COc1ccccc1)Nc1cc(C(F)(F)F)ccc1N1CCCC1` | percent of 1 uM PGE2 response; plus low (about EC15) PGE2 agonist | -19.93 |
| `CCOC(=O)C1CCN(c2c(-c3ccccc3)c3cc(Cl)ccc3[nH]c2=O)CC1` | percent of 1 uM PGE2 response; plus low (about EC15) PGE2 agonist | 27.99 |
| `C=CCSc1nc(Oc2ccccc2)c2sccc2n1` | percent of 1 uM PGE2 response; plus low (about EC15) PGE2 agonist | 4.65 |
| `COc1ccc(C2CC(C(F)(F)F)n3nc(C(N)=O)c(Cl)c3N2)cc1OC` (configuration not stated) | percent of 1 uM PGE2 response; plus low (about EC15) PGE2 agonist | -6.613 |
| `CCOP(=O)(OCC)c1nc(-c2cccc3ccccc23)oc1NCc1ccc(OC)cc1` | percent of 1 uM PGE2 response; plus low (about EC15) PGE2 agonist | -4.86 |
| `N#CCCSc1ncnc2c1oc1ccccc12` | percent of 1 uM PGE2 response; plus low (about EC15) PGE2 agonist | 55.31 |
| `O=c1c(C=NCc2ccccc2)c(NCc2ccccc2)nc2ccccn12` | percent of 1 uM PGE2 response; plus low (about EC15) PGE2 agonist | -0.3067 |
| `Cc1ccc(OCC(=O)NNC(=O)C2CCN(c3ncccn3)CC2)cc1` | percent of 1 uM PGE2 response; plus low (about EC15) PGE2 agonist | 6.803 |
| `O=C(NCc1ccco1)c1ccc(=O)[nH]n1` | percent of 1 uM PGE2 response; plus low (about EC15) PGE2 agonist | -3.553 |
| `CCOC(=O)c1c(NC(=O)c2cccs2)sc(C)c1CC` | percent of 1 uM PGE2 response; plus low (about EC15) PGE2 agonist | 2.257 |
| `CCCCOc1ccccc1Cn1c(=O)oc2ccccc21` | percent of 1 uM PGE2 response; plus low (about EC15) PGE2 agonist | 9.97 |
| `CN=C1CC(SC)=C1c1ccc(C)cc1` | percent of 1 uM PGE2 response; plus low (about EC15) PGE2 agonist | -22.56 |
| `CC(C)CCn1c(O)c(N=NC(=O)c2ccco2)c2ccccc21` | percent of 1 uM PGE2 response; plus low (about EC15) PGE2 agonist | -11.91 |
| `CC1=C(C(=O)OCc2ccccc2)C(c2ccc(Cl)cc2Cl)NC(=O)N1CCCCCC(=O)O` (configuration not stated) | percent of 1 uM PGE2 response; plus low (about EC15) PGE2 agonist | 2.973 |
| `CCOC(=O)c1c(C=O)c(C)n(Cc2ccc(C)cc2)c1C` | percent of 1 uM PGE2 response; plus low (about EC15) PGE2 agonist | -7.763 |
| `O=c1c2c(nc3n1CCCCC3)-c1ccccc1CC21CCCCC1` | percent of 1 uM PGE2 response; plus low (about EC15) PGE2 agonist | -2.28 |
| `O=C(CSCc1c(Cl)cccc1Cl)Nc1ccccc1-c1ccccc1` | percent of 1 uM PGE2 response; plus low (about EC15) PGE2 agonist | -1.11 |
| `Cc1ccccc1NC(=S)N(Cc1ccco1)C(C)c1cccs1` (configuration not stated) | percent of 1 uM PGE2 response; plus low (about EC15) PGE2 agonist | -4.14 |
| `Cc1noc(C)c1CSc1nc2ccccc2c(=O)n1-c1ccc(F)cc1F` | percent of 1 uM PGE2 response; plus low (about EC15) PGE2 agonist | -8.78 |
| `Cc1ccc(OCc2n[nH]c(=S)n2Cc2ccccc2)cc1` | percent of 1 uM PGE2 response; plus low (about EC15) PGE2 agonist | -10.06 |
| `Cc1cc(C)n(-c2nc3ccccc3nc2Nc2ccc3[nH]c(=O)[nH]c3c2)n1` | percent of 1 uM PGE2 response; plus low (about EC15) PGE2 agonist | -3.1 |
| `COc1cnc(SCc2c(Cl)cccc2Cl)nc1Cl` | percent of 1 uM PGE2 response; plus low (about EC15) PGE2 agonist | 12.63 |
| `COC(=O)c1c(NC(=O)c2cccs2)sc2c1CCC(C)C2` (configuration not stated) | percent of 1 uM PGE2 response; plus low (about EC15) PGE2 agonist | 31.22 |
| `CCCn1c(C)nc2c(c1=O)c1nc3ccccc3nc1n2CCC1=CCCCC1` | percent of 1 uM PGE2 response; plus low (about EC15) PGE2 agonist | -8.677 |
| `CCOC(=O)c1sc(NC(=O)CCN2CC(C)OC(C)C2)c(C(=O)OCC)c1C` (configuration not stated) | percent of 1 uM PGE2 response; plus low (about EC15) PGE2 agonist | 2.78 |
| `Cc1scc(-c2n[nH]c(=S)n2Cc2ccccc2)c1C` | percent of 1 uM PGE2 response; plus low (about EC15) PGE2 agonist | 1.513 |
| `CCCc1cc(-c2n[nH]c(=S)n2C(C)c2ccccc2)cs1` (configuration not stated) | percent of 1 uM PGE2 response; plus low (about EC15) PGE2 agonist | 3.637 |
| `CCCCN1C(=O)/C(=C2\SC(N3CCCCC3)=NC2=O)c2ccccc21` | percent of 1 uM PGE2 response; plus low (about EC15) PGE2 agonist | -2.227 |
| `C=CCn1c(SCc2c(C)noc2C)nc2ccccc2c1=O` | percent of 1 uM PGE2 response; plus low (about EC15) PGE2 agonist | -1.81 |
| `N#Cc1c(-c2ccco2)nc(SCC(=O)Nc2cccc(Cl)c2)[nH]c1=O` | percent of 1 uM PGE2 response; plus low (about EC15) PGE2 agonist | 54.49 |
| `Cc1ccc(Cn2c(Cc3ccccc3)nc3ccccc32)cc1` | percent of 1 uM PGE2 response; plus low (about EC15) PGE2 agonist | -18.97 |
| `Cc1ccc(Cn2ccc(=O)c(OCc3c(Cl)cccc3Cl)c2C)cc1` | percent of 1 uM PGE2 response; plus low (about EC15) PGE2 agonist | -8.21 |
| `Cc1cc(O)c(C=O)c2c1C(=O)Oc1c(COC(=O)/C=C/C(=O)O)c(O)c(C(=O)O)c(C)c1O2` | percent of 1 uM PGE2 response; plus low (about EC15) PGE2 agonist | -7.15 |
| `CC1=CC(C)(C)N(S(=O)(=O)c2ccc(C)cc2)c2cc(C)ccc21` | percent of 1 uM PGE2 response; plus low (about EC15) PGE2 agonist | -2.377 |
| `O=C(O)CSc1cc(-c2ccccc2)nc2ccccc12` | percent of 1 uM PGE2 response; plus low (about EC15) PGE2 agonist | 45.04 |
| `C=CCN1C(=O)N(/C=C/C)c2cccc3cccc1c23` | percent of 1 uM PGE2 response; plus low (about EC15) PGE2 agonist | 3.273 |
| `Cc1ccc(Cn2c(=O)n(Cc3ccco3)c(=O)c3ccccc32)cc1` | percent of 1 uM PGE2 response; plus low (about EC15) PGE2 agonist | -10.58 |
| `CCCn1cnc2sc(CC)cc2c1=O` | percent of 1 uM PGE2 response; plus low (about EC15) PGE2 agonist | -3.187 |
| `COc1ccc(-c2csc3nc(C)nc(N4CCC(C)CC4)c23)cc1OC` | percent of 1 uM PGE2 response; plus low (about EC15) PGE2 agonist | 3.477 |
| `Cc1ccc(S(=O)(=O)N2c3ccccc3OCC2C(C)(C)C)cc1` (configuration not stated) | percent of 1 uM PGE2 response; plus low (about EC15) PGE2 agonist | 10.57 |
| `Clc1ccc(-c2nn3c(-c4ccccc4)nnc3s2)cc1` | percent of 1 uM PGE2 response; plus low (about EC15) PGE2 agonist | 17.22 |
| `Cc1ccc(CSc2nc3ccccc3cc2C=O)cc1` | percent of 1 uM PGE2 response; plus low (about EC15) PGE2 agonist | -19.65 |
| `C=C[C@@](C)(O)CCC1C(=C)C[C@H](O)C2C(C)(C)CCCC12C` (some centres not stated) | percent of 1 uM PGE2 response; plus low (about EC15) PGE2 agonist | 0.23 |
| `Cn1c(=O)c2c(nc(CN3CCN(c4ccccc4)CC3)n2Cc2ccccc2Cl)n(C)c1=O` | percent of 1 uM PGE2 response; plus low (about EC15) PGE2 agonist | -4.94 |
| `S=c1[nH]cc(-c2ccccc2)n1-c1ccccc1` | percent of 1 uM PGE2 response; plus low (about EC15) PGE2 agonist | 4.757 |
| `CCOC(=O)CC(=O)CSc1nc(-c2ccc3c(c2)OCO3)cc(C(F)(F)F)c1C#N` | percent of 1 uM PGE2 response; plus low (about EC15) PGE2 agonist | 46.53 |
| `COc1ccc(C)cc1NC(=O)C1CC(=O)OC12CCCCC2` (configuration not stated) | percent of 1 uM PGE2 response; plus low (about EC15) PGE2 agonist | 0.5633 |
| `CCC(Sc1nc(-c2ccccc2)c(C#N)c(=O)[nH]1)C(=O)Nc1cc(C)on1` (configuration not stated) | percent of 1 uM PGE2 response; plus low (about EC15) PGE2 agonist | 52.63 |
| `Cc1sc2ncnc(N(C)Cc3cccs3)c2c1C` | percent of 1 uM PGE2 response; plus low (about EC15) PGE2 agonist | -6.997 |
| `Cc1ccccc1-n1c(=O)[nH]c(=O)c2c(N)c(C(=O)c3ccc(Cl)cc3)sc21` | percent of 1 uM PGE2 response; plus low (about EC15) PGE2 agonist | 0.8967 |
| `COc1cc(/C=C2\SC(=S)N(Nc3ncc(C(F)(F)F)cc3Cl)C2=O)ccc1O` | percent of 1 uM PGE2 response; plus low (about EC15) PGE2 agonist | -1.57 |
| `CCC(c1nnnn1C1CCCC1)N(Cc1cccs1)Cc1cc2cc(C)ccc2[nH]c1=O` (configuration not stated) | percent of 1 uM PGE2 response; plus low (about EC15) PGE2 agonist | -3.92 |
| `c1ccc(CCc2ccccc2-c2nc(-c3ccccn3)no2)cc1` | percent of 1 uM PGE2 response; plus low (about EC15) PGE2 agonist | -3.493 |

5 of the entries, repeated:

- O=C(COc1ccccc1)Nc1cc(C(F)(F)F)ccc1N1CCCC1 [percent of 1 uM PGE2 response; plus low (about EC15) PGE2 agonist] : cAMP induction -19.93%
- Cc1scc(-c2n[nH]c(=S)n2Cc2ccccc2)c1C [percent of 1 uM PGE2 response; plus low (about EC15) PGE2 agonist] : cAMP induction 1.513%
- CCCCN1C(=O)/C(=C2\SC(N3CCCCC3)=NC2=O)c2ccccc21 [percent of 1 uM PGE2 response; plus low (about EC15) PGE2 agonist] : cAMP induction -2.227%
- CC1CCN(C(C)C(=O)Nc2ccccc2-c2ccccc2)CC1 (configuration not stated) [percent of 1 uM PGE2 response; plus low (about EC15) PGE2 agonist] : cAMP induction 5.423%
- Cc1noc(C)c1CSc1nc2ccccc2c(=O)n1-c1ccc(F)cc1F [percent of 1 uM PGE2 response; plus low (about EC15) PGE2 agonist] : cAMP induction -8.78%